Results published in publication PMC6693180.

Target: T1, Programmed cell death 4 (PDCD4) (human (endogenous in 293T)) (UniProt Q53EL6)
T1 sequence: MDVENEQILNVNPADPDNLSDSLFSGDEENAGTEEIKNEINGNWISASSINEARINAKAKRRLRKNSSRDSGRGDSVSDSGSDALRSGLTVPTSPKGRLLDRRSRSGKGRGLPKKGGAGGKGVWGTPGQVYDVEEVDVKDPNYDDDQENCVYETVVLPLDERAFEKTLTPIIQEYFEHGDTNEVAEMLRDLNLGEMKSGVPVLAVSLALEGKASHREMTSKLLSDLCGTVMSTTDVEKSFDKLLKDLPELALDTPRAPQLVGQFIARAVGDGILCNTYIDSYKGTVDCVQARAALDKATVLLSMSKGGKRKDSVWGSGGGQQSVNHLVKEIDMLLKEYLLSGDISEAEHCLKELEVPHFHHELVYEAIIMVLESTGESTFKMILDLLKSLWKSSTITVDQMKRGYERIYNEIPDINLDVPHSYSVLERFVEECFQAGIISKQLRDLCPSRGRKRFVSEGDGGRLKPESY
Test: co-IP; Flag-tagged truncated DTL fragments transfected into 293T (Lipofectamine 2000); precipitated by PDCD4 antibody, blotted with Flag antibody

Substance: Flag-DTL truncated fragment, WD40 domain only (human) (domain or fragment)
- binding: binds

Results are given in words; binding and its absence hold for the method and conditions named. Binding seen in cells or lysates may run through a third protein. Binding can be weak; no strength is given.
